# From PubChem BioAssay AID2685 (National Center for Advancing Translational Sciences (NCATS), 2010)
# The other results are listed elsewhere or left out. These are further read-outs of the screen, such as a control signal, another cell line or another target. No call is given for them. Most of these compounds were active or inconclusive in the main read-out, so they are no random draw. Potencies come from curve fits of mixed quality, noted in brackets.
# Experiment: qHTS Assay for Lipid Storage Modulators in Drosophila S3 Cells;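 on cell number change: cells counted by Cell Tracker Red CMTPX staining in the red channel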
# Settings: BODIPY lipid droplet fluorescence, 18-24 h; for cell number change: measured here: cell count max response, cells fed with added oleic acid
# Summary of the method: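 Laser-scanning cytometry quantifies lipid droplet accumulation (500–530 nm total intensity; droplet/cell object ratio) in oleic acid-fed (400 uM added) Drosophila S3 cells treated with a concentration series. 20 uM Triacsin C defined 100% inhibition.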
# [1] = measured here: lipid fluorescence (Fed channel) AC50, cells fed with added oleic acid
# [2] = measured here: cell number channel AC50, cells fed with added oleic acid
Structure (SMILES),cell number change,AC50 [1],AC50 [2]
COc1ccc(OC)c(NS(=O)(=O)c2ccc3c(c2)n(C)c(=O)n3C)c1,10.1%,"0.082 µM [rising, full curve, poor fit]",–
Cc1csc(NC(=O)COc2ccc3c(C)cc(=O)oc3c2)n1,59.7%,"1.64 µM [rising, partial curve]","1.46 µM [rising, partial curve]"
COc1ccc(C2N=C(c3ccccc3)C(C)(C)N2O)cc1OC (stereo unspecified),0.471%,"3.26 µM [rising, partial curve, poor fit]",–
CCCC(C(=O)NC(C)(C)CC)N(CC1CCCO1)C(=O)CNS(=O)(=O)c1ccc(F)cc1 (stereo unspecified),1.28%,–,–
Oc1ccc2ccccc2c1CNc1ccc(Br)cc1,-8.16%,"2.06 µM [falling, partial curve]",–
Cc1[nH]c(=O)[nH]c(=O)c1CSc1nnc([C@@H](NC(=O)OC(C)(C)C)C(C)C)o1,4.02%,–,–
CCC1CCCCN1CCN1C(=O)C2C(C(=O)Nc3ccc(OC)cc3)C3C=CC2(O3)C1C(=O)NC1CCCCC1 (stereo unspecified),6.67%,–,–
CC(Oc1ccc(-c2ccccc2)cc1)C(=O)N/N=C/c1cccnc1 (stereo unspecified),10.3%,–,–
CCn1c2ccccc2c2nnc(SCC(=O)Nc3cc(C)on3)nc21,-50.2%,"1.16 µM [rising, single point]","32.6 µM [falling, single point]"
CC(Oc1ccccc1)C(=O)N1CCN(C(=O)C(C)Oc2ccccc2)CC1 (stereo unspecified),15.7%,–,–
COCCn1c(SCC(=O)OC(C)C)nnc1-c1ccccc1,31.4%,–,"0.326 µM [rising, full curve]"
CC(C)Nc1ccc(Nc2ccnc3cc4ccccc4cc23)cc1,-67.9%,"14.6 µM [falling, partial curve]","13 µM [falling, partial curve]"
CC(=O)c1ccc(NC(=O)c2cc(S(=O)(=O)N3CCOCC3)ccc2C)cc1,23.8%,"6.51 µM [rising, partial curve, poor fit]",–
NC(=O)COC(=O)c1ccc2c(c1)S(=O)(=O)c1ccccc1C2=O,11.7%,"0.92 µM [falling, full curve, poor fit]",–
OC(CN1CCOCC1)Cn1cnc2ccccc21 (stereo unspecified),-21.1%,"29.1 µM [falling, single point]",–
COC(=O)N1CC(C)N(C(=O)OC)CC1C (stereo unspecified),-15.2%,"0.00461 µM [falling, full curve, poor fit]",–
COc1ccc(-n2c(=S)[nH]c3cc(C(=O)Nc4ccc(F)cc4)ccc3c2=O)c(OC)c1,–,"23.1 µM [falling, partial curve]",–
Cc1ccc(C(=O)N/C(=C\c2cccs2)C(=O)NCCc2c[nH]c3ccccc23)cc1,-1.4%,"0.146 µM [rising, full curve, poor fit]",–
COc1cc(/C=C/C(=O)OCC(=O)Nc2ccc(C)c(S(=O)(=O)N3CCCCC3)c2)ccc1O,30.3%,"5.8 µM [rising, single point]","7.31 µM [rising, partial curve]"
c1ccc2c(NCC3CCCO3)nc(N3CCCCC3)nc2c1 (stereo unspecified),30.2%,–,"18.4 µM [rising, single point]"
O=C(Nc1nc(-c2ccc3c(c2)OCO3)cs1)C1CC1,–,"0.58 µM [rising, single point]",–

Structure (SMILES),cell number change,AC50 [1],AC50 [2]
COc1ccc(Nc2nc3ccccc3n3nnnc23)cc1,–,–,"2.31 µM [rising, partial curve]"
Cc1cc([N+](=O)[O-])nn1CC(=O)Nc1sc2c(c1C(N)=O)CCCC2,36.4%,"29.1 µM [rising, single point]","3.26 µM [rising, partial curve]"
CCOC(=O)c1ccc(CNC(=O)C2CCC(=O)N(CCc3ccccc3)C2)o1 (stereo unspecified),-73.7%,–,"23.1 µM [falling, partial curve, poor fit]"
CCN(CC)CCn1c2c(c(SCC(=O)Nc3cccc4ccccc34)nc1=O)CCCC2,23.4%,"8.2 µM [rising, partial curve, poor fit]",–
CCN1CCN(CC(O)COc2cccc(OC)c2)CC1 (stereo unspecified),0.354%,"6.51 µM [falling, single point]",–
CC1=C(C(=O)Nc2ccccc2)C(c2ccco2)n2ncnc2N1 (stereo unspecified),13.5%,"9.2 µM [rising, partial curve, poor fit]",–
COc1ccc(/C(N)=N/OC(=O)c2ccco2)cc1,–,–,"6.51 µM [rising, partial curve, poor fit]"
O=S(=O)(Nc1ccncc1)c1ccc(Cl)cc1,–,"29.1 µM [falling, single point]",–
CCN(CC)c1ccc(-c2nnc(SCC(=O)Nc3ccccc3C#N)n2-c2ccccc2)cc1,-20.5%,"11.6 µM [falling, partial curve, poor fit]",–
Cc1c(NS(=O)(=O)c2cc(NC(=O)CCN3CCCC(C)C3)ccc2Cl)c(=O)n(-c2ccccc2)n1C (stereo unspecified),14.1%,–,"0.731 µM [falling, full curve, poor fit]"
O=C(CSc1nnc(NC(=O)c2c(F)cccc2F)s1)NC1CC1,-8.4%,–,–
COc1ccc(-c2nc(CC(=O)O)cs2)cc1,-47%,–,"32.6 µM [falling, partial curve, poor fit]"
C=CCNC(=O)c1ccc2c(c1)nnn2C,4.49%,"6.51 µM [falling, single point]",–
Cc1ccc(C)c(N2CCN(c3nc4ccccc4c(=O)n3Cc3ccccc3)CC2)c1,10.2%,"0.411 µM [rising, full curve, poor fit]",–
CC1CCN(C(=O)c2cccc(NC(=O)c3cccs3)c2)CC1,6.76%,–,–
CCOc1ccc(-n2cnnn2)cc1S(=O)(=O)Nc1c(C)cccc1C,19.7%,"0.58 µM [rising, full curve, poor fit]","1.64 µM [rising, partial curve, poor fit]"
CCC1CCc2sc(C(=O)N(C)CC(=O)Nc3cccc(OC)c3)cc2C1 (stereo unspecified),17.7%,"10.3 µM [rising, partial curve, poor fit]",–
C/C(=N\Nc1cc(Cl)nc(C)n1)c1ccc(Cl)c(Cl)c1,–,"0.103 µM [rising, full curve, poor fit]",–
N#Cc1c(SCC(=O)Nc2nc3ccc(Br)cc3s2)sc2c(O)cc(=O)[nH]c12,8.55%,"0.146 µM [rising, full curve, poor fit]",–
O=C(N/N=C/c1ccccc1)c1c(O)c2ccccc2[nH]c1=O,-29.7%,"6.51 µM [falling, full curve]",–
Brc1cccc(OCCCN2CCCCCC2)c1,-18.1%,"29.1 µM [falling, single point]",–

# Four entries drawn at random from the list so far, as already listed:
Structure (SMILES),cell number change,AC50 [1],AC50 [2]
CCC1CCc2sc(C(=O)N(C)CC(=O)Nc3cccc(OC)c3)cc2C1 (stereo unspecified),17.7%,"10.3 µM [rising, partial curve, poor fit]",–
COc1ccc(/C(N)=N/OC(=O)c2ccco2)cc1,–,–,"6.51 µM [rising, partial curve, poor fit]"
CCOC(=O)c1ccc(CNC(=O)C2CCC(=O)N(CCc3ccccc3)C2)o1 (stereo unspecified),-73.7%,–,"23.1 µM [falling, partial curve, poor fit]"
Cc1ccc(C)c(N2CCN(c3nc4ccccc4c(=O)n3Cc3ccccc3)CC2)c1,10.2%,"0.411 µM [rising, full curve, poor fit]",–

# Further compounds follow.

Structure (SMILES),cell number change,AC50 [1],AC50 [2]
CCCCn1c(N)c(N(CC(C)C)C(=O)c2cc(-c3ccncc3)nc3ccccc23)c(=O)[nH]c1=O,–,–,"1.03 µM [rising, single point]"
O=C(NNc1ccccc1)C(=O)NNS(=O)(=O)c1ccc([N+](=O)[O-])cc1,-9.98%,–,–
Cc1cccc(CSc2ncnc3ccccc23)c1,-20.8%,–,–
CC(=O)Nc1ccc(-n2c(=O)c3ccccc3c3ccccc3c2=O)cc1,-12.6%,"7.31 µM [falling, partial curve]",–
COc1ccc(/C=C/c2cc(=O)c3cc(Cl)ccc3o2)cc1,35.4%,"2.06 µM [rising, partial curve]","10.3 µM [rising, partial curve, poor fit]"
Cc1ccc(NC(=O)CCSc2ccccn2)cc1,2.35%,"29.1 µM [falling, single point]",–
O=C1CNC(=O)/C1=C\N1CCCCC1,-10.3%,"14.6 µM [falling, partial curve]",–
CCc1sc(C(=O)NCCc2ccc(S(N)(=O)=O)cc2)cc1C,17.1%,–,–
Cc1ccc(S(=O)(=O)N2CCCC2c2nc3ccccc3s2)cc1 (stereo unspecified),24.1%,"3.26 µM [rising, full curve]",–
C#CCOCCOCCOCCNc1nc(N2CCOCC2)nc(N2CCN(C(=O)CCCCCCCCCCNC(=O)[C@@H]([C@H](C)CC)n3cc(CCCCCN)nn3)CC2)n1,-44.7%,"32.6 µM [falling, single point]","16.4 µM [falling, single point]"
Cc1ccc(NS(=O)(=O)c2cccc(C(=O)NCC(c3ccco3)N3CCCCC3)c2)cc1 (stereo unspecified),-4.7%,"0.00411 µM [rising, full curve, poor fit]",–
COC(=O)[C@@]12CCCCN1[C@H](c1ccc(-c3ccc(C(C)=O)cc3)c(OC)c1)[C@@H]1C(=O)N(C)C(=O)[C@@H]12,–,–,"6.51 µM [rising, single point]"
COc1ccccc1C=NC(CO)C(O)c1ccc([N+](=O)[O-])cc1 (stereo unspecified),3.6%,–,–
N#Cc1ccc(C(=O)NN2C(=O)NC3(CCCCC3)C2=O)cc1,100%,–,"18.4 µM [rising, single point]"
COc1ccc(OCc2cc(C(=O)NCC3CCOCC3)no2)c(Cl)c1,-17.4%,–,–
COCCOC(=O)C1=C(C)N(Cc2ccccc2)C(=O)NC1c1ccc(OC)cc1 (stereo unspecified),14.2%,"2.06 µM [rising, single point]",–
O=C(NCCc1ccc(Cl)cc1)c1nnc(Cc2ccc(Cl)cc2)o1,-31.7%,"29.1 µM [falling, single point]","29.1 µM [falling, single point]"
COCC(=O)N(Cc1cc2ccc(C)cc2[nH]c1=O)c1ccc(OC)cc1,34.1%,–,"11.6 µM [rising, partial curve, poor fit]"
CCOC(=O)c1cc(-c2ccccc2)n(CC(=O)O)c1C,16.8%,"0.00461 µM [rising, full curve, poor fit]",–
